Assay results taken from ChEMBL document CHEMBL4359931, “Synthesis, biological evaluation and molecular docking studies of new amides of 4-bromothiocolchicine as anticancer agents” (Bioorg Med Chem, 2019).

Test system: LoVo
Assay: Antiproliferative activity against human LoVo cells assessed as reduction in cell viability incubated for 120 hrs by MTT assay
Type: functional, cell-based

For `COc1cc2c(c(OC)c1OC)-c1ccc(OC)c(=O)cc1[C@@H](NC(C)=O)CC2` [COLCHICINE], which IC50 is on record?
The IC50 was 0.108 µM.
